Data as given in PubChem BioAssay AID1259405 (NCATS, 2018).

- Aim: 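Silenced genes that increase secreted GFP made by CHO cells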 (primary screen)
- Cell system: Chinese hamster CHO-K1 ovary cells with stable secreted eGFP expression
- Reagents: single siRNA against mouse genes, 0.8 pmol siRNA per well (2 µl of 400 nM stock)
- Time to read-out: 3 days
- Measured: 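Per-well intracellular GFP measured by laser scanning cytometry, plus viability from ATP luminescence, each relative to plate median of non-targeting control wells, in %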
- Scale: GFP, % of control: higher = more GFP per well, higher productivity; viability (ATP), % of control: higher = more viable cells (more ATP)
- Hit rule: 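a knock-down is called active if GFP reaches 120% or more of non-targeting control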
This is a random part of about 50,000 reagents. In the full data, about 4,000 (8%) are marked active. 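Mouse siRNA library applied to hamster cells; one well for each siRNA.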

Irs4 (insulin receptor substrate 4) [SID363540435]: GFP, % of control = 92.3; viability (ATP), % of control = 70.2; activity call = inactive
Irs4 (insulin receptor substrate 4) [SID363542187]: GFP, % of control = 79.6; viability (ATP), % of control = 79.1; activity call = inactive
Irs4 (insulin receptor substrate 4) [SID363567103]: GFP, % of control = 40.7; viability (ATP), % of control = 72.8; activity call = inactive
Or12e8 (olfactory receptor family 12 subfamily E member 8) [SID363544552]: GFP, % of control = 97.2; viability (ATP), % of control = 53.7; activity call = inactive
Or12e8 (olfactory receptor family 12 subfamily E member 8) [SID363550880]: GFP, % of control = 82.9; viability (ATP), % of control = 57.5; activity call = inactive
Or12e8 (olfactory receptor family 12 subfamily E member 8) [SID363557429]: GFP, % of control = 86; viability (ATP), % of control = 80.5; activity call = inactive
Myrip (myosin VIIA and Rab interacting protein) [SID363572209]: GFP, % of control = 71.9; viability (ATP), % of control = 51.9; activity call = inactive
Myrip (myosin VIIA and Rab interacting protein) [SID363573969]: GFP, % of control = 81.2; viability (ATP), % of control = 86.5; activity call = inactive
Vkorc1 (vitamin K epoxide reductase complex, subunit 1) [SID363556853]: GFP, % of control = 49.1; viability (ATP), % of control = 55.3; activity call = inactive
Vkorc1 (vitamin K epoxide reductase complex, subunit 1) [SID363563757]: GFP, % of control = 88.2; viability (ATP), % of control = 72.9; activity call = inactive
Vkorc1 (vitamin K epoxide reductase complex, subunit 1) [SID363587303]: GFP, % of control = 78.9; viability (ATP), % of control = 82.1; activity call = inactive
Klf7 (Kruppel-like transcription factor 7 (ubiquitous)) [SID363573877]: GFP, % of control = 61.6; viability (ATP), % of control = 99; activity call = inactive
Klf7 (Kruppel-like transcription factor 7 (ubiquitous)) [SID363581621]: GFP, % of control = 65.8; viability (ATP), % of control = 76.3; activity call = inactive
Klf7 (Kruppel-like transcription factor 7 (ubiquitous)) [SID363584085]: GFP, % of control = 57.6; viability (ATP), % of control = 85.1; activity call = inactive
Cenpp (centromere protein P) [SID363543520]: GFP, % of control = 70.4; viability (ATP), % of control = 65.1; activity call = inactive
Cenpp (centromere protein P) [SID363553013]: GFP, % of control = 105; viability (ATP), % of control = 64.5; activity call = inactive
Cenpp (centromere protein P) [SID363558861]: GFP, % of control = 64.3; viability (ATP), % of control = 83; activity call = inactive
Rapgef4 (Rap guanine nucleotide exchange factor (GEF) 4) [SID363570175]: GFP, % of control = 53.8; viability (ATP), % of control = 48.8; activity call = inactive
Rapgef4 (Rap guanine nucleotide exchange factor (GEF) 4) [SID363576511]: GFP, % of control = 102; viability (ATP), % of control = 69; activity call = inactive
Rapgef4 (Rap guanine nucleotide exchange factor (GEF) 4) [SID363579679]: GFP, % of control = 77.4; viability (ATP), % of control = 62.6; activity call = inactive
Idua (iduronidase, alpha-L) [SID363569894]: GFP, % of control = 59.3; viability (ATP), % of control = 94.4; activity call = inactive
Idua (iduronidase, alpha-L) [SID363576934]: GFP, % of control = 59.1; viability (ATP), % of control = 110; activity call = inactive
Idua (iduronidase, alpha-L) [SID363578342]: GFP, % of control = 81.9; viability (ATP), % of control = 92.6; activity call = inactive

Just “viability (ATP), % of control” (3 entries from above):
Rapgef4 (Rap guanine nucleotide exchange factor (GEF) 4) [SID363576511]	69
Rapgef4 (Rap guanine nucleotide exchange factor (GEF) 4) [SID363579679]	62.6
Idua (iduronidase, alpha-L) [SID363569894]	94.4

More results:
Gpatch2l (G patch domain containing 2 like) [SID363540666]: GFP, % of control = 78.6; viability (ATP), % of control = 75.7; activity call = inactive
Gpatch2l (G patch domain containing 2 like) [SID363543117]: GFP, % of control = 63.8; viability (ATP), % of control = 58.2; activity call = inactive
Gpatch2l (G patch domain containing 2 like) [SID363552610]: GFP, % of control = 114; viability (ATP), % of control = 96; activity call = inactive
Insig2 (insulin induced gene 2) [SID363540377]: GFP, % of control = 71.2; viability (ATP), % of control = 79.7; activity call = inactive
Insig2 (insulin induced gene 2) [SID363542129]: GFP, % of control = 134; viability (ATP), % of control = 58.2; activity call = active
Insig2 (insulin induced gene 2) [SID363567045]: GFP, % of control = 46.6; viability (ATP), % of control = 49.3; activity call = inactive
Odr4 (odr4 GPCR localization factor homolog) [SID363545280]: GFP, % of control = 155; viability (ATP), % of control = 98.9; activity call = active
Odr4 (odr4 GPCR localization factor homolog) [SID363548793]: GFP, % of control = 73.3; viability (ATP), % of control = 73.1; activity call = inactive
Odr4 (odr4 GPCR localization factor homolog) [SID363562599]: GFP, % of control = 48.7; viability (ATP), % of control = 62.7; activity call = inactive
Rgs3 (regulator of G-protein signaling 3) [SID363545192]: GFP, % of control = 87.5; viability (ATP), % of control = 78.4; activity call = inactive
Rgs3 (regulator of G-protein signaling 3) [SID363548705]: GFP, % of control = 102; viability (ATP), % of control = 91.1; activity call = inactive
Rgs3 (regulator of G-protein signaling 3) [SID363562511]: GFP, % of control = 79.7; viability (ATP), % of control = 66.9; activity call = inactive
Nkrf (NF-kappaB repressing factor) [SID363542942]: GFP, % of control = 25.5; viability (ATP), % of control = 18.8; activity call = inactive
Nkrf (NF-kappaB repressing factor) [SID363546459]: GFP, % of control = 59.2; viability (ATP), % of control = 45.7; activity call = inactive
Nkrf (NF-kappaB repressing factor) [SID363548215]: GFP, % of control = 111; viability (ATP), % of control = 90.8; activity call = inactive
Snx3 (sorting nexin 3) [SID363554904]: GFP, % of control = 66.7; viability (ATP), % of control = 78; activity call = inactive
Snx3 (sorting nexin 3) [SID363568351]: GFP, % of control = 140; viability (ATP), % of control = 72; activity call = active
Snx3 (sorting nexin 3) [SID363586410]: GFP, % of control = 95.2; viability (ATP), % of control = 68.5; activity call = inactive
Mesd (mesoderm development LRP chaperone) [SID363562225]: GFP, % of control = 97.6; viability (ATP), % of control = 89.3; activity call = inactive
Mesd (mesoderm development LRP chaperone) [SID363567363]: GFP, % of control = 40.2; viability (ATP), % of control = 81.3; activity call = inactive
Mesd (mesoderm development LRP chaperone) [SID363584720]: GFP, % of control = 104; viability (ATP), % of control = 66.4; activity call = inactive
Cenpu (centromere protein U) [SID363562352]: GFP, % of control = 118; viability (ATP), % of control = 72.7; activity call = inactive
Cenpu (centromere protein U) [SID363567490]: GFP, % of control = 50.9; viability (ATP), % of control = 91.4; activity call = inactive
Cenpu (centromere protein U) [SID363584847]: GFP, % of control = 67.7; viability (ATP), % of control = 69.8; activity call = inactive
Fgf13 (fibroblast growth factor 13) [SID363541548]: GFP, % of control = 54.7; viability (ATP), % of control = 58.1; activity call = inactive
Fgf13 (fibroblast growth factor 13) [SID363556175]: GFP, % of control = 73.4; viability (ATP), % of control = 82; activity call = inactive
Fgf13 (fibroblast growth factor 13) [SID363566464]: GFP, % of control = 50.4; viability (ATP), % of control = 76.1; activity call = inactive
Ap3b2 (adaptor-related protein complex 3, beta 2 subunit) [SID363582589]: GFP, % of control = 92.4; viability (ATP), % of control = 136; activity call = inactive
Ap3b2 (adaptor-related protein complex 3, beta 2 subunit) [SID363584349]: GFP, % of control = 45.9; viability (ATP), % of control = 49.5; activity call = inactive
